# From PubChem BioAssay AID1259354 (Paczesny and Yang Labs, IUPUI and University of Michigan, 2018)
# Chains of the proteins cited; added tags and fusions are not shown. Lines headed by an entry give the natural chain unless they say otherwise; changes in a name come on top.
# UniProt Q01638: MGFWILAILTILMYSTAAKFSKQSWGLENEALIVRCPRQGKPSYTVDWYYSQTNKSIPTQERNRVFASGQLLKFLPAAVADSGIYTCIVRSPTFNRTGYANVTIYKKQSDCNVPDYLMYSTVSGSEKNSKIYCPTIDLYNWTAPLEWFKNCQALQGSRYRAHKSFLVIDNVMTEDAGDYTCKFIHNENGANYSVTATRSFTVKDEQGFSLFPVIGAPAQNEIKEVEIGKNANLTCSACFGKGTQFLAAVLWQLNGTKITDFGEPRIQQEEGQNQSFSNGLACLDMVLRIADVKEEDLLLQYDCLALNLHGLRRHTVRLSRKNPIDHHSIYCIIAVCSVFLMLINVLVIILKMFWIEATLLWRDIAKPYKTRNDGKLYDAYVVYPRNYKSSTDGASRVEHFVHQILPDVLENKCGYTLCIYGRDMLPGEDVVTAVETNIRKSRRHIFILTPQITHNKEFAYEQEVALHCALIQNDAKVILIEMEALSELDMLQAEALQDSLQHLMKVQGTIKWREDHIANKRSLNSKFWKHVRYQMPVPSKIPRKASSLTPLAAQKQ
# “And” between values parts separate entries of the source, which are not always exact repeats. Equal values may be shown once. Hit rate of the full screen: of about 78,000 compounds, about 1,800 (2.3%) were called active. The inconclusive results got no clear call from the source; some entries with a clear call stand among them for comparison. No stated cut-off is given here; in the data, active means inhibition above about 30%; inconclusive means mostly about 10% to 28%; inactive means weaker than that.
# Target: Interleukin-1 receptor-like 1 (Homo sapiens) (UniProt Q01638)
# Test: blocks human ST2 binding to IL-33, primary screen, biochemical, AlphaLISA (AID 1259354)
# Details: AlphaLISA ST2-Fc/biotin-IL-33 interaction, 1 h; at 17 µM, active compounds read high
row,Compound,inhibition
1,Cc1cc(Cl)ccc1-n1c(CCC(=O)O)ccc1-c1cccs1,inconclusive: 17%
2,CCC(O)CC1CCC(C(C)C(=O)OC(CC)CC2CCC(C(C)C(=O)O)O2)O1 (stereo not given),inactive
3,COC(=O)[C@@H]1Cc2c([nH]c3ccccc23)[C@H]2C[C@@H](NCCNC(C)=O)C[C@@H](c3ccc(C(C)C)cc3)N21,inconclusive: 14%
4,COc1ccc(CN2CCCC(N3CCc4ccccc4C3)C2)c(OC)c1 (stereo not given),inconclusive: 14%
5,COc1ccc(CCN(C)C2CCCN(C(=O)c3cc(C(C)C)no3)C2)cc1OC (stereo not given),inactive
6,CCOc1ccc(C(=O)CCC(=O)N2CCn3cncc3C2)cc1C,inconclusive: 21%
7,CCN(CC)S(=O)(=O)c1cc(C(=O)Nc2ccc(Br)cc2)ccc1Cl,inactive
8,Cc1ccc(S(=O)(=O)N2CCN(c3nc(-c4cccs4)cs3)CC2)cc1,active: 32%
9,Fc1ccc(-c2noc([C@@H]3CCCN3Cc3c[nH]c4ccccc34)n2)nc1,inconclusive: 14%
10,CC(=O)c1c(C)nn(-c2ccc(C(=O)NCc3ccccc3)o2)c1C,inconclusive: 10%
11,CCCc1nc(C(=O)N2CCC(O)(CN(C)C)C2)cs1 (stereo not given),inconclusive: 19%
12,COc1ccc(C(=O)Nc2cc(Cl)ccc2Cl)cc1N,inconclusive: 28%
13,Nc1nonc1-c1noc(CCCOc2ccc(Cl)cc2Cl)n1,inconclusive: 28%
14,CC(=O)N1C(=O)Cc2cc([N+](=O)[O-])ccc21,inconclusive: 14%
15,CC1=C(C#N)C(=O)NC(=O)/C1=C\c1ccc(-c2cccc([N+](=O)[O-])c2)o1,active: 30%
16,CCCn1ncc(C(=O)N2CCn3cccc3C2c2cccnc2)c1C (stereo not given),inconclusive: 15%
17,Cc1cc(C)c(C#N)c(SC/C=C/c2ccccc2)n1,inconclusive: 19% and inconclusive: 18%
18,COc1cccc(NC(=O)C(=O)NC2CC2)c1,inactive
19,CC1CCN(CCNC(=O)C2CCN(c3ccc(-c4cccs4)nn3)CC2)CC1,inconclusive: 10%
20,Cc1cccnc1C(=O)N(CC#Cc1ccccc1)CC(C)C,inactive

# For convenience, some entries already given.
row,Compound,inhibition
9,Fc1ccc(-c2noc([C@@H]3CCCN3Cc3c[nH]c4ccccc34)n2)nc1,inconclusive: 14%
10,CC(=O)c1c(C)nn(-c2ccc(C(=O)NCc3ccccc3)o2)c1C,inconclusive: 10%
11,CCCc1nc(C(=O)N2CCC(O)(CN(C)C)C2)cs1 (stereo not given),inconclusive: 19%
12,COc1ccc(C(=O)Nc2cc(Cl)ccc2Cl)cc1N,inconclusive: 28%

# (list continues)

row,Compound,inhibition
1,Cc1noc(C)c1C(=O)N1CCC(C(=O)Nc2cccc(-c3cc4ccccc4[nH]3)c2)CC1,inconclusive: 19%
2,CC(C)=CC(=O)NCCC1CN(Cc2cnc(C)nc2)CCO1 (stereo not given),inconclusive: 16%
3,COc1ccc(Br)cc1CN1CCC(O)CC1,inactive
4,COc1ccc(N2CCN(C(=O)CN(C)S(=O)(=O)c3ccc(Cl)cc3)CC2)cc1,inconclusive: 21%
5,Cc1cc(C=C2C(=O)NC(=O)NC2=O)c(C)n1-c1ccc(Cl)c(Cl)c1,inconclusive: 19%
6,CCCC1=C(C(=O)OCC)C(c2c(OC)ccc3ccccc23)N2C(=O)CSC2=N1 (stereo not given),inconclusive: 18%
7,CC(C)c1nccc(-c2c(-c3ccccc3)ncn2CC2CCCO2)n1 (stereo not given),inactive
8,CCc1nn(C)c(Cl)c1CN1CCN(c2ccc(Cl)nn2)CC1,inactive
9,Cc1nccc(-c2cccc(NC(=O)c3ccccc3C3CCNC3)c2)n1 (stereo not given),inconclusive: 20%
10,O=C(c1ccc(NC2=NC3CS(=O)(=O)CC3S2)cc1)N1CCCCC1 (stereo not given),inactive
11,COc1cc(CN2CCc3c(cc(-c4ccc(F)c(C)c4)c(=O)n3C)C2)cc2c1OCO2,inconclusive: 10%
12,COc1ccc(N=Cc2nc(-c3ccccc3F)oc2O)c([N+](=O)[O-])c1,inconclusive: 25%
13,COc1cc(OC)c(C2C(C(=O)Nc3ccccc3)=C(C)Nc3ncnn32)cc1OC (stereo not given),inconclusive: 13%
14,Cc1ccc(NC(=O)c2cc3cc(Cl)cc(Cl)c3oc2=N)cc1,inconclusive: 10%
15,Cc1ccc2c(c1)CCCN2C(=O)CN(Cc1ccccn1)CC1CCCO1 (stereo not given),inconclusive: 15%
16,Cc1nn(C)c(C)c1CN(C(=O)CCc1nc(-c2ccco2)no1)C(C)C,inconclusive: 11%
17,O=C1S/C(=C/c2ccco2)C(=O)N1CN1CCOCC1,inconclusive: 11%
18,Cc1cccc(Cn2c(=O)c3c(nc4n3CCN4c3ccccc3)n(C)c2=O)c1,inconclusive: 10%
19,COCCNC(=O)c1ccc(OC2CCN(C(C)CSC)CC2)c(Cl)c1 (stereo not given),inconclusive: 18%
20,COc1cc(C2CC(=O)N(Cc3ccccc3F)c3ccccc3S2)cc(OC)c1OC (stereo not given),inconclusive: 13%

row,Compound,inhibition
1,O=C1CO[C@H]2CN(C3CCCCC3)C[C@H]2N1c1ccccc1,inconclusive: 13%
2,O=C(Nc1ccc([N+](=O)[O-])cc1Cl)c1ccco1,inconclusive: 17%
3,N#CC1=C(N)N(c2ccccc2[N+](=O)[O-])C2=C(C(=O)CCC2)C1c1ccsc1 (stereo not given),inactive
4,Cc1cc(C=O)c(C)n1-c1ccc(F)c(Cl)c1,inconclusive: 13%
5,CCOC(=O)Cn1c(=O)oc2cc(S(=O)(=O)Nc3ccc(Cl)cc3)ccc21,inactive
6,C=CCn1c(SCC(=O)N2CCOCC2)nc2sc(-c3ccccc3)cc2c1=O,inactive
7,COc1cc(Br)c(CN2CC(C)OC(C)C2)cc1OC (stereo not given),inconclusive: 14%
8,Cc1ccc(Nc2cc(C)nc(-c3ccccc3)n2)cc1,inconclusive: 12%
9,CC1=C(C(=O)OCc2ccccc2)C(c2cccc(F)c2)N2C(=O)CCSC2=N1 (stereo not given),inactive
10,O=C(Cc1ccc(Br)cc1)NC1CCCCC1,inconclusive: 10%
11,O=C(CN1C(=O)CCc2cc(S(=O)(=O)N3CCCCC3)ccc21)NCCc1ccc(Cl)cc1,inconclusive: 15%
12,COc1ccc(C)cc1S(=O)(=O)N1CCN(c2nc(C)cc(N3CCCC3)n2)CC1,inactive
13,C#CCn1c(=NC(=O)CSCC(=O)Nc2nccs2)sc2ccccc21,inactive
14,COc1ccc(Nc2cc(C)nc(Nc3ccc(NC(=O)C(C)C)cc3)n2)cc1,inconclusive: 13%
15,CCOc1ccc(S(=O)(=O)Nc2nc3ccccc3s2)c2cccnc12,inactive
16,Cc1ccccc1C1CCCN(C(=O)CCC(C)C)C1 (stereo not given),inconclusive: 18%
17,O=c1c2nc3ccccc3n2c(=O)n2c1nc1ccccc12,inactive
18,Cc1nn(Cc2ccccc2Cl)c(C)c1NC(=O)c1cc(CC(C)C)on1,inactive
19,Cc1cc(Oc2ccccc2F)c(F)cc1[N+](=O)[O-],active: 31%
20,CC1OC(O[C@H]2CC[C@@]3(C)C(CC[C@]4(C)C3CC=C3C5CC(C)(C)CC[C@]5(C(=O)OC5OC(CO)C(OC6OCC(O)C(O)C6O)C(O)C5O)CC[C@]34C)C2(C)C)C(O)C(O)C1OC1OC(CO)C(O)C(OC2OC(CO)C(O)C(O)C2O)C1O (stereo not given in full),inactive
